The target in assay [1] is β1-integrin (rat (endogenous in primary ATII cells of Sprague-Dawley rats)) (UniProt P49134). The experiment in a line: co-IP; endogenous proteins in primary rat ATII cell lysate (150 mM NaCl, 50 mM Tris-HCl pH 7.5, 1 % Nonidet P40, 0.5 % sodium deoxycholate); IP with anti-KCa3.1 or anti-β1-integrin antibody and protein A-agarose, overnight at 4 °C; washes up to 500 mM NaCl; immunoblot of the other protein; controls without lysate or without antibody.

Sequences of proteins named here, by UniProt entry; tags and fusion partners are left off. Residues count along the entry.
UniProt P49134, residues 21-799: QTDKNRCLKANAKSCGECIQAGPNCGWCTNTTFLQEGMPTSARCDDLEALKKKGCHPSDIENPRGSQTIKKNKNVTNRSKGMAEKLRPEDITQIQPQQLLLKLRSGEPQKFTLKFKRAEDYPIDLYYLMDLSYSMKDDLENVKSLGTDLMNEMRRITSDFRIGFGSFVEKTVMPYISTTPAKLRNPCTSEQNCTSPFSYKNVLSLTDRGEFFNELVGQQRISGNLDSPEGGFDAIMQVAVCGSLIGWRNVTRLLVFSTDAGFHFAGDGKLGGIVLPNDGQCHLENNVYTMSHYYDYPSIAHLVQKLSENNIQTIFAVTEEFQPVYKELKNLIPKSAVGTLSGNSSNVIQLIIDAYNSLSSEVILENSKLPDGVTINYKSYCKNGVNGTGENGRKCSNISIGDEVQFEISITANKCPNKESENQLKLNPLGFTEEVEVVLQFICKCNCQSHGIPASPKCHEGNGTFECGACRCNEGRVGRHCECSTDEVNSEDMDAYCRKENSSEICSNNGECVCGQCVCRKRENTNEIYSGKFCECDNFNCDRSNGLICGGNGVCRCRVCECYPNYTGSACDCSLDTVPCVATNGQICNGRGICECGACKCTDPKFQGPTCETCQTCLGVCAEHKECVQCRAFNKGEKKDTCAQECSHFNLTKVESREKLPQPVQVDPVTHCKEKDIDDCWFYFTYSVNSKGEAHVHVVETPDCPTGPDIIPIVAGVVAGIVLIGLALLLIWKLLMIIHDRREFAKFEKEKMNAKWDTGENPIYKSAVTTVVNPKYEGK
UniProt Q9QYW1: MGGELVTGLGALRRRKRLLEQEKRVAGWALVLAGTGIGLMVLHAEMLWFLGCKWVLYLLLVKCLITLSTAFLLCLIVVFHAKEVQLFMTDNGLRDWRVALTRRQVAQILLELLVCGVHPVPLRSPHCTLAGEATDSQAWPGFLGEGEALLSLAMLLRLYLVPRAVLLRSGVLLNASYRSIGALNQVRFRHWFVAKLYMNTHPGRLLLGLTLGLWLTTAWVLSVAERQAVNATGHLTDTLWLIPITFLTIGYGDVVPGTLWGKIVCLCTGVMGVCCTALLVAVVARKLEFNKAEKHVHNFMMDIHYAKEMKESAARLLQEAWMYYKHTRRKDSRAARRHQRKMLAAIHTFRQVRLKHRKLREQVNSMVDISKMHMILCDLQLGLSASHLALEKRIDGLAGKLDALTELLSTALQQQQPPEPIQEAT

The target in assay [2] is KCa3.1 channel (rat (endogenous in primary ATII cells of Sprague-Dawley rats)) (UniProt Q9QYW1). The assay is described as above.

Results are given in words; binding and its absence hold for the method and conditions named. In cells and extracts the contact can be indirect. Some entries that bind do so weakly or less than the wild type.

“KCa3.1 channel (from UniProt Q9QYW1 1-425)”: in assay [1], the binding result is reported as “binds”.

As for “β1-integrin (from UniProt P49134 21-799) (receptor)”, the binding result in assay [2] is on record as “binds”.

For the origin of these results see PMC4558634.
